Source: patent publication US10233205B2, “Magnetic resonance imaging contrast agent capable of detecting hydrogen peroxide and reducing reactive oxygen species” (Auburn University, priority 2015, dated 2019)

Test: Extent of quinol oxidation by H2O2

Row | Molecule | decrease in intensity of quinol hydroxyl 1H NMR peaks upon oxidation (4.0 equiv H2O2, MeCN-d3, after Zn(ClO4)2) | oxidation of the H2qtp1 ligand (4.0 equiv H2O2, MeCN-d3, from integrated quinol peaks) | quinols oxidized to para-quinones by excess H2O2 (excess H2O2) | sensor oxidized by excess H2O2, from relaxivity results (excess H2O2) | quinols oxidized (4 equiv. H2O2, CD3CN, 1 h)
1 | CC#N.O=S(=O)([O-])C(F)(F)F.O=S(=O)([O-])C(F)(F)F.[Mn+2].[O-]c1ccc(O)cc1CN(CCN(Cc1ccccn1)Cc1ccccn1)Cc1ccccn1 [Complex 1, Acetonitrilo(N-(2,5-dihydroxy-benzyl)-N,N′,N′-tris(2-pyridinylmethyl)-1,2-ethanediamine)manganese(II) triflate] | approximately 45% | ~55% | ~70% | ~70% | –
2 | cis-Dibromo(N,N′-bis(2,5-dihydroxybenzyl)-N,N′-bis(2-pyridinylmethyl)-1,2-ethanediamine)manganese(II) [Complex 3] | – | – | ~70% | – | 50%
